No constants are given. Whether binding was seen depends on the method and setting. Binding seen in cells or lysates may run through a third protein. A yes stands for co-enrichment or nearness to the bait. Other partners may have been found.
Columns and labels:
[1] = molecular target: native lamin A/C (mouse (endogenous in heart, skeletal muscle and brain)) (UniProt P48678); experiment: affinity purification with mass spectrometry; native lamin A/C immunoprecipitated with mAb 4C11 and Protein G Sepharose from sonicated heart lysates of old IL10-KO and control C57Bl/6 female mice (five each); 50 mM Tris pH 7.4, 300 mM NaCl, 0.3% Triton X-100, 4°C; TMT 10-plex
[2] = molecular target: native lamin A/C (mouse (endogenous in heart, skeletal muscle and brain)) (UniProt P48678); experiment: affinity purification with mass spectrometry; native lamin A/C immunoprecipitated with mAb 4C11 and Protein G Sepharose from sonicated skeletal muscle lysates of old IL10-KO and control C57Bl/6 female mice (five each); 50 mM Tris pH 7.4, 300 mM NaCl, 0.3% Triton X-100, 4°C; TMT 10-plex

The chains behind the UniProt entries cited, without tags or fusion partners. Residues count along the entry.
UniProt P48678, residues 1-647: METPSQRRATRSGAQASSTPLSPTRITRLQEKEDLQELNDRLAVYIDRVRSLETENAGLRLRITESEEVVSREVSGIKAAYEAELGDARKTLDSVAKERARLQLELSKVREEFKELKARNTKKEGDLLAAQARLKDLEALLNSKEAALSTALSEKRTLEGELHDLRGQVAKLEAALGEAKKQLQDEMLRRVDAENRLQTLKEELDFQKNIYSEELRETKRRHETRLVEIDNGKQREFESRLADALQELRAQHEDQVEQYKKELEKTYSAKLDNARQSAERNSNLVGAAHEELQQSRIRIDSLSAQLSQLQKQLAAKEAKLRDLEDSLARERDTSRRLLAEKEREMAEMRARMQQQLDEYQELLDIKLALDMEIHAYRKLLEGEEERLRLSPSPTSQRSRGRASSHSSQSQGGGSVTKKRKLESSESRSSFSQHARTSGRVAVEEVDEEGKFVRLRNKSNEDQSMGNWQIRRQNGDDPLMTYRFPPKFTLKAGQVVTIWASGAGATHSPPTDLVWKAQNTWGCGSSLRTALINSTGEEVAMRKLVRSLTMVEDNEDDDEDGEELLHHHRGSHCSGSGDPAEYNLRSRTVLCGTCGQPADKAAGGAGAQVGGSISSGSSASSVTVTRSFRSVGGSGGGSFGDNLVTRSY

B1: Interleukin-1 receptor-associated kinase-like 2 (protein, UniProt Q8CFA1 1-622)
chain: MACYIYQLPSWVLDDLCRNIDTLSEWDWMQFASYVITDLTQLRKIKSMERVQGVSITRELLWWWSMRQATVQQLVDLLCHLELYRAAQIVLSWKPVPESTSPLPAFPEAVKPGAVATSRRNLKDEQEKVRPVKPRSLLDTGPIMAGAQRQRPCEMDAPCSLKTDAPDSPQSKYCSTSTSAPKQERLLGLPGDRLFWSEADVVQATEDFDQSHRISEGTFADIYQGQRNGVAFAFKKLREVAGSSPGSMDRFLQAEMQLCLRCCHANVLPLLGFCTGRQFHSLIYPYMANGSLHDRLWAQGNSDMLPWPQRASICSGLLLAVEHLHSLDIIHSNVKSANVLLDQHLNPKLAHPVAHPHPDNKKTKYTVMRTHLFQASAAYLPEHFIRVGQLTKQVDIFSCGIVLAEVLTGIPAMDKDRSPVYLKDLLLSEIPNSTSSVCSRKTSMGKAVVKEICQRHVEKRAGLLPEACEEAWATAVSVCLRRRNASVEEARVSLAGVEEQLRGQLSLPWSRVSEATGSSSNTPEETDDVDNSSLSVPSLVMMASCPGAASSPLFTGHGAAQPSTSGRQEADSSSEACTGPQTPQNATETSWKIEINEAKRRLMENIVLYKEERLDSSELFGP
[1]
  binding: binds
[2]
  binding: binds

B2: SH3 domain-containing protein 21 (protein, UniProt Q7TSG5 1-549)
chain: MVQSELQLQPRAGRRADASNWGDFGSDKGGLGNTDIPPITPNSQRPPKLSNLTYDSPPDYLRTVSCPETCRVLFDYQPEAPDELALQKGDLVKVLRKTTEDKGWWEGECQGRRGVFPDNFVIPPPPIRKLIPRKIISRESAPIKETKKLMPKSSLPTVKKLAAAASAPGRAKTLSTPSGDSQKRPSRNSGFNGSCLNGGPRQPGRKGSRTQASQQHSASSQEDEQKSPGKGPSRSKTPTPEKTRLPDKVLAPETIPAPDKVSIPKDPVPKKAPDSDKIPATEDTTLDKAGTPESTLSGNKPAKDEALDLKMALHEDTAPALVKILTPEHMIFKKEPSRDNDQCQHLPQGGSTQRPESPAPSNNIQVPGEYSPPPDSSERSCCRVRQVNGSFPAQSKAEDVSAMEEANFLEEPLAKDERTLNKALPKKLPSERAGPQKQVLPQESAPTPQVPHTIQQMPVPEEAPTLHPLTPLTSPKSKNDRMDVLESLKEEVGLLRSRLELLELKLEQKMGDVWEELKTETLLSPEVQMMQRNRKSFKHAETQTETQTE
[1]
  binding: binds
[2]
  binding: binds
